{"source": "paper PMC7309225", "about": "“Synthesis, Biodistribution, and Radiation Dosimetry of a Novel mGluR5 Radioligand: ^18F-AZD9272” (ACS Chemical Neuroscience, 2020)", "test_system": "mGluR5", "assay": "Brain PET in cynomolgus monkey (HRRT), VT by 2TC model and Logan GA", "type": "in vivo", "procedure": "Two male cynomolgus monkeys (NHP1: 5460 g and NHP2: 7080 g) were used in this study. […] Anesthesia was induced by intramuscular injection of ketamine hydrochloride (approximately 10 mg/kg) at AFL and maintained by intravenous infusion of ketamine (4 mg/kg/h) and xylazine (0.4 mg/kg/h) with a pump. The NHP head was immobilized with a fixation device. […] Heart rate, blood pressure, respiratory rate, and oxygen saturation were continuously monitored throughout the experiments. Fluid balance was maintained by continuous infusion of saline.\nPET measurements were conducted using a High Resolution Research Tomograph (HRRT) PET scanner (Siemens Molecular Imaging, Knoxville, TN). […]\nAn automated blood sampling system (ABSS) was used to measure the continuous radioactivity for the first 3 min after the radioligand injection. Then, blood sampling was performed manually for the measurement of metabolism and radioactivity at 5, 15, 30, 60, 90, and 120 min after the injection. […]\nAs the main outcome measure, the total distribution volume (VT) defined as (K1/k2)(k3/k4 + 1) by the two tissue compartment (2TC) model and Logan graphical analysis (GA) was calculated with the metabolite corrected plasma radioactivity as the input function. […]", "note": "“And” between values parts separate entries of the source, which are not always exact repeats. Equal values may be shown once."}
{"compound": "N#Cc1cc(F)cc(-c2nc(-c3ccc([18F])cn3)no2)c1", "note": "[^18F-AZD9272, 3-fluoro-5-(3-(5-[^18F]fluoropyridin-2-yl)-1,2,4-oxadiazol-5-yl)benzonitrile]", "values": [{"measurement": "Bias of VT with shortened measurement", "setting": "at 75 min, both 2TC and GA", "value": "≤ 3", "unit": "%"}, {"measurement": "VT by GA lower than VT by 2TC", "setting": "per animal (two NHPs)", "value": "11% and 6%"}]}
